Experimental data: PubChem BioAssay AID2685 (National Center for Advancing Translational Sciences (NCATS), 2010)
The list shows a part of the results. These are further read-outs of the screen, such as a control signal, another cell line or another target. No call is given for them. Most of these compounds were active or inconclusive in the main read-out, so they are no random draw. Words in brackets tell the shape of the fitted curve; partial curves, single points and poor fits give uncertain potencies.

Assay: qHTS Assay for Lipid Storage Modulators in Drosophila S3 Cells;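 on cell number change: cells counted by Cell Tracker Red CMTPX staining in the red channel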
Settings: BODIPY lipid droplet fluorescence, 18-24 h; for cell number change: measured here: cell count max response, cells fed with added oleic acid
Procedure, shortened: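 Laser-scanning cytometry quantifies lipid droplet accumulation (500–530 nm total intensity; droplet/cell object ratio) in oleic acid-fed (400 uM added) Drosophila S3 cells treated with a concentration series. 20 uM Triacsin C defined 100% inhibition.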

[1] = measured here: cell number channel AC50, cells fed with added oleic acid
[2] = measured here: lipid fluorescence (Fed channel) AC50, cells fed with added oleic acid

## CCCCn1c(N)c(N(CCOC)C(=O)CSc2n[nH]c(-c3ccc(OC)cc3)n2)c(=O)[nH]c1=O
  cell number change: 25.8%

## CN(Cc1ccccc1)C(=O)c1ccc(NC(=O)Cc2cccc(NC(=O)C3CCN(C(=O)C4CCC4)CC3)c2)cc1
  cell number change: 0.798%

## O=C(CSc1nnc(C2COc3ccccc3O2)o1)Nc1ccc(F)cc1Cl (stereo unspecified)
  cell number change: 17.2%
[1]
  AC50: 0.326 µM [rising, full curve]
[2]
  AC50: 0.92 µM [rising, full curve]

## Clc1ccc(C#Cc2cccnc2)cc1
  cell number change: -33.4%
[1]
  AC50: 16.4 µM [falling, single point]

## N#C/C(=C\c1c(F)cccc1Cl)C(=O)NC1CC1
  cell number change: 2.7%
[2]
  AC50: 6.51 µM [falling, single point]

## Fc1ccccc1CNc1ncnc2sccc12
  cell number change: 24.3%

## O=C(COC(=O)c1ccc(F)c(S(=O)(=O)N2CCOCC2)c1)Nc1ccc2[nH]c(=O)[nH]c2c1
  cell number change: -4.65%

## CC(=O)N1CCN(C(=S)NC(=O)c2ccc(S(=O)(=O)N3CCOCC3)cc2)CC1
  cell number change: -33.3%
[1]
  AC50: 0.82 µM [falling, full curve, poor fit]
[2]
  AC50: 0.92 µM [rising, partial curve, poor fit]

## O=C(CS(=O)CC(=O)Nc1cnc2ccccc2c1)Nc1ccc(Cl)cc1 (stereo unspecified)
  cell number change: 25.2%
[1]
  AC50: 0.231 µM [rising, full curve, poor fit]

## COc1ccc(CC(=O)NCc2ccc3c(c2)OCO3)cc1
  cell number change: 24.7%
[2]
  AC50: 0.0058 µM [rising, full curve, poor fit]

## Nc1ccc(Br)c2c1C(=O)c1ccccc1C2=O
  cell number change: -36%
[1]
  AC50: 18.4 µM [falling, partial curve]
[2]
  AC50: 29.1 µM [falling, single point]

## COc1ccc(C=O)cc1COc1ccc2c(c1)OCO2
  cell number change: 2.49%
[2]
  AC50: 0.00517 µM [rising, full curve, poor fit]

## CCCn1c(=O)c2ccccc2n2c(SCC(=O)c3ccc(CC)cc3)nnc12
  cell number change: 17.9%
[2]
  AC50: 4.61 µM [rising, partial curve, poor fit]

## CN(CC(=O)Nc1ccccc1Br)C(=O)c1cc2c(s1)CCCCC2
  cell number change: 26.8%

## Cc1nn(CC(=O)O)c(=O)c2ccccc12
[2]
  AC50: 16.4 µM [falling, partial curve]

## C/C(CC(=O)Nc1ccc(Cl)cn1)=N\NC(=O)Cc1cccs1
  cell number change: 8.54%
[2]
  AC50: 4.61 µM [falling, single point]

## CC(=O)N1[C@H](Cc2ccccc2)C=C[C@]1(C)C(=O)NCCc1c[nH]c2ccccc12
  cell number change: 20.5%
[2]
  AC50: 9.2 µM [rising, partial curve, poor fit]

## COc1ccc2[nH]c(C(=O)N3CCN(Cc4ccccc4)CC3)cc2c1OC
  cell number change: -0.59%

## C=CCN1C(=O)C(C)(C)N(C(C)=O)c2ccccc21
  cell number change: -5.28%
[2]
  AC50: 29.1 µM [falling, single point]

## COc1ccc2ccn(C)c2c1
  cell number change: 2.03%
[2]
  AC50: 9.2 µM [rising, single point]

## COc1cc(OC)c(C2=NOC(C(=O)NCc3ccc4c(c3)OCO4)C2)cc1Cl (stereo unspecified)
  cell number change: 152%
[1]
  AC50: 9.2 µM [rising, partial curve]
[2]
  AC50: 18.4 µM [rising, partial curve]

## COc1ccc(NC(=O)CC2SC(=NCc3ccccc3OC)NC2=O)cc1 (stereo unspecified)
  cell number change: -11.4%

## O=C(NNc1nc(-c2ccccc2)c2cc(Br)ccc2n1)c1ccc(S(=O)(=O)N2CCOCC2)cc1
  cell number change: 21.2%

## CN(Cc1cccc(Cl)c1Cl)c1ccc(S(=O)(=O)N2CCCCC2)cc1[N+](=O)[O-]
  cell number change: -6.36%
[2]
  AC50: 13 µM [rising, partial curve]

## C=CCn1c(SCc2c(C)noc2C)nc2sc(C)c(C)c2c1=O
  cell number change: 176%
[1]
  AC50: 4.61 µM [rising, full curve]
[2]
  AC50: 20.6 µM [rising, partial curve]

## CCOc1ccc(-n2c(SCC(=O)Nc3cc(C)on3)nnc2-c2c[nH]c3ccccc23)cc1
  cell number change: 84.4%
[1]
  AC50: 2.31 µM [rising, full curve]
[2]
  AC50: 4.11 µM [rising, partial curve]

## O=[N+]([O-])c1ccc(N2CCN(c3ccc(O)cc3)CC2)c(Cl)c1
  cell number change: -18.3%
[2]
  AC50: 2.59 µM [falling, full curve]

## CCn1c(-c2ccc(C(C)(C)C)cc2)n[nH]c1=S
  cell number change: 12.9%
[2]
  AC50: 29.1 µM [rising, single point]

## O=C(NCc1ccccn1)c1ccccc1OCc1ccc(F)cc1
  cell number change: -2.41%

## COc1ccc(NC(=O)CN(C)C(=O)Cc2c[nH]c3ccccc23)cc1
  cell number change: 0.995%
[1]
  AC50: 0.82 µM [falling, full curve, poor fit]
[2]
  AC50: 14.6 µM [falling, partial curve]

## COCc1cc(=O)[nH]c(/N=C(\N)Nc2ccc(Oc3ccccc3)cc2)n1
  cell number change: -18.8%
[2]
  AC50: 6.51 µM [falling, full curve, poor fit]

## C=CCOc1c(OC)cc(Cl)cc1C1NC(=O)NC(C)=C1C(C)=O (stereo unspecified)
  cell number change: 2.93%
[2]
  AC50: 6.51 µM [rising, single point]

## O=C(O)CCNC(=O)OCC1c2ccccc2-c2ccccc21
  cell number change: -13%
[2]
  AC50: 0.517 µM [falling, full curve, poor fit]

## COc1cccc(-c2nnc(-c3ccco3)o2)c1
  cell number change: -11.8%

## COCCCNS(=O)(=O)c1ccc2c(c1)CCN2C(C)=O
  cell number change: 0.748%
[2]
  AC50: 0.517 µM [falling, single point]

## COc1cccc(-c2[nH]nc3c2C(c2ccc(C)o2)C(C#N)=C(N)O3)c1 (stereo unspecified)
  cell number change: -52%
[1]
  AC50: 14.6 µM [falling, partial curve, poor fit]

## Cc1nnc(SCC(=O)NC2CCCCC2)[nH]c1=O
  cell number change: -11.8%

## O=C(CC1OCC2CCCN2C1=O)Nc1ccc([N+](=O)[O-])cc1 (stereo unspecified)
  cell number change: 2.1%

## O=C(NCc1ccc(Cl)cc1)c1n[nH]c([N+](=O)[O-])c1Cl
  cell number change: 24.8%
[1]
  AC50: 3.26 µM [falling, single point]

## Oc1c(C(c2ccc(Cl)cc2)N2CCCC2)cc(Cl)c2cccnc12 (stereo unspecified)
[2]
  AC50: 0.58 µM [rising, single point]

## O=C(Nc1cc(Cl)cc(Cl)c1)c1cnn2cccnc12
  cell number change: 46.7%
[1]
  AC50: 0.146 µM [rising, full curve]
[2]
  AC50: 2.59 µM [rising, partial curve, poor fit]
